Test [1] has as its target T1, FLAG-tagged FKBP51 (expressed in cells) (UniProt Q13451).
T1 sequence: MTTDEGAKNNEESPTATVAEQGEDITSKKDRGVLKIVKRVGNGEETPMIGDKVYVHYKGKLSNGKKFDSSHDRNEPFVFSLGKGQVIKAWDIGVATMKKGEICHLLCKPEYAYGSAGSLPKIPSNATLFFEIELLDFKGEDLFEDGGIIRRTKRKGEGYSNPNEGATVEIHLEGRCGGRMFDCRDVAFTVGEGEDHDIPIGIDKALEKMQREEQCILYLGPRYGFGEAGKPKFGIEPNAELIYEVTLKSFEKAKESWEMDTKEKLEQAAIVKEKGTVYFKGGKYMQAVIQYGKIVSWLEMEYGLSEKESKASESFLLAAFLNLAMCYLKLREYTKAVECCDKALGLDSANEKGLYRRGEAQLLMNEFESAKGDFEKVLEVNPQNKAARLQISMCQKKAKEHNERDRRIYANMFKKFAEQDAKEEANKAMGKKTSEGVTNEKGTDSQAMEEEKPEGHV
Nature of the test: co-IP; HEK293T cells co-transfected; lysis in NETN buffer; FLAG or HA affinity resin overnight at 4 °C, 5 washes, Western blot; in some panels cells were treated before lysis with FK1706, FK506 or rapamycin (1 µM, 1 h), AT7867 (10 µM, 1 h), wortmannin, starvation or FCS. On the technique in general: Immunoblotting shows a protein as a band on a membrane.

Sequences of proteins named here, by UniProt entry; tags and fusion partners are left off. A change or cut given only in a name is not applied to a line headed by its entry.
UniProt P68106: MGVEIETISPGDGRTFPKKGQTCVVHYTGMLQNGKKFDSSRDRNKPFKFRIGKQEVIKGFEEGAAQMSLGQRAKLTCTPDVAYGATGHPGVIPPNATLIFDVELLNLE
UniProt P31749: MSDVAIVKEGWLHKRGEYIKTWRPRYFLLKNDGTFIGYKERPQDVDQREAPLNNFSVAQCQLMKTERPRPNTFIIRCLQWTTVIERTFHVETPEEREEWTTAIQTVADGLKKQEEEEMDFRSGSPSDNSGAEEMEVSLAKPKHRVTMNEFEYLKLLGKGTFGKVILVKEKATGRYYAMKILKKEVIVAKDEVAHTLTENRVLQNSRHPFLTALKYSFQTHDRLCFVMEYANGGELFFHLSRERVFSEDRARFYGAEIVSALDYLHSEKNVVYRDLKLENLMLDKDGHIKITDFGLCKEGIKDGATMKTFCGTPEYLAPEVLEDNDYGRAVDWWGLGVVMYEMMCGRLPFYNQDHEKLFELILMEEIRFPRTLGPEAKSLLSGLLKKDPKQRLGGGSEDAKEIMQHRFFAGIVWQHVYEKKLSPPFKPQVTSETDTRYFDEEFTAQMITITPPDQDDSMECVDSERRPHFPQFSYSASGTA
UniProt Q08752: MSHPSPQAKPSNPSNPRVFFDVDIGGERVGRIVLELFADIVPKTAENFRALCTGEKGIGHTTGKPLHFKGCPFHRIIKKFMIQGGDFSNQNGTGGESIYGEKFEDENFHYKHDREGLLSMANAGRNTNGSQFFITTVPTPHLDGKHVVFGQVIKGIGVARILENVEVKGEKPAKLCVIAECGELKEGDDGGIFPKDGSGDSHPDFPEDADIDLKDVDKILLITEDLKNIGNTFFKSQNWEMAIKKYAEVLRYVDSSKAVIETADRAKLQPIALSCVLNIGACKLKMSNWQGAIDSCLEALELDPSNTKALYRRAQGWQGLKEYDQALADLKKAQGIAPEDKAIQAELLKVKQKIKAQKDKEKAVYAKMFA

Test [2] concerns the target T2, FLAG-tagged FKBP52 (expressed in cells) (UniProt Q02790).
T2 sequence: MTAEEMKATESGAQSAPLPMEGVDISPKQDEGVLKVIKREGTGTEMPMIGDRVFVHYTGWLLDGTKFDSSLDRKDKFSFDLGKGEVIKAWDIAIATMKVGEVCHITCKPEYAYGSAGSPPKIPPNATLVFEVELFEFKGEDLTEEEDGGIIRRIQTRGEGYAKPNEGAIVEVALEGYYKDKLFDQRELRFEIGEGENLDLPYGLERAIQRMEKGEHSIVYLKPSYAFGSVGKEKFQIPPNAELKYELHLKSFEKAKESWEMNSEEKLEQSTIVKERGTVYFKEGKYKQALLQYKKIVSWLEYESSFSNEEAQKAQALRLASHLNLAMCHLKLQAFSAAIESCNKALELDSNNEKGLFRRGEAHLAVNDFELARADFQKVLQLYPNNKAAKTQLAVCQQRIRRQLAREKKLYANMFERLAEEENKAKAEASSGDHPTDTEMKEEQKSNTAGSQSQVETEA
Described as above.

In test [3] the target is T3, FLAG-tagged FKBP51^K352A/R356A (TPR_mut) (UniProt Q13451).
T3 sequence: T1 sequence with K352A, R356A
Described as above.

The target in test [4] is FLAG-tagged FKBP12 (expressed in cells) (UniProt P62942). Described as above.
The target of test [5] is FLAG-tagged FKBP12.6 (expressed in cells) (UniProt P68106). The test is described as above.
A further test has as its target T4, GST_Akt1^S473D (UniProt P31749 1-480, S473D).
T4 construct: Akt1 with the phosphomimetic S473D, called constitutively active; also called purified GST-tagged Akt1S473D; GST-tagged active Akt
Nature of the test: pull-down; GST pull-down: 15 µM FKBPs or Cyp40 with 22 µM GST_Akt1 S473D or GST_Akt1 S473D_ΔPH on glutathione resin, 3 h, 4 °C, NETN buffer (20 mM Tris-HCl pH 8.0, 100 mM NaCl, 1 mM EDTA, 0.5% igepal); AMP-PNP (5 mM), rapamycin (1 µM) or DMSO where indicated; Western blot; both purified.

Test [6] deals with T1, FLAG-tagged FKBP51 (expressed in cells). Nature of the test: co-IP; HEK293T cells co-transfected; lysis in NETN buffer; FLAG or HA affinity resin overnight at 4 °C, 5 washes, Western blot; in some panels cells were treated before lysis with FK1706, FK506 or rapamycin (1 µM, 1 h), AT7867 (10 µM, 1 h), wortmannin, starvation or FCS. This is another data set of the same source.

The next test deals with HA_Akt1 (wild type) (UniProt P31749). The description is as above.

Changes are numbered by the printed parent chain. Read-outs that look alike come from different tables or passages of the source. No constants are given. Whether binding was seen depends on the method and setting. For some assays here: Binding seen in cells or lysates may run through a third protein. Some entries that bind do so weakly or less than the wild type. For some assays here: Sequences can lack the tags named with a protein.

As for “HA_Akt1 (wild type) (from UniProt P31749 1-480)”, the binding result in test [1], in test [2], in test [3], in test [4] and in test [5] was “binds” in each case. In the case of “HA_Akt1 S473A (from UniProt P31749 1-480)”, the binding entry in test [3] is recorded as “binds”.

For “HA_Akt1 T308D/S473D (from UniProt P31749 1-480)”, the binding entry in test [3] is on record as “binds”. On to “purified Cyp40 (from UniProt Q08752 1-370)”, for which the binding entry in the test with GST_Akt1^S473D is listed as “no binding (tested: 15 µM)”.

B1: HA-tagged PHLPP2 (protein, UniProt Q6ZVD8 1-1323)
chain: MKRNGSRNCLNRRSRFGSRERDWLREDVKRGCVYLYGADTTTATTTTTTSSSSSSSSSSSDLHLVLCTVETPASEICAGEGRESLYLQLHGDLVRRLEPTERPLQIVYDYLSRLGFDDPVRIQEEATNPDLGCMIRFYGEKPCHMDRLDRILLSGIYNVRKGKTQLHKWAERLVVLCGTCLIVSSVKDCQTGKMHILPLVGGKIEEVKRRQYSLAFSSAGAQAQTYHVSFETLAEYQRWQRQASKVVSQRISTVDLSCYSLEEVPEHLFYSQDITYLNLRHNFMQLERPGGLDTLYKFSQLKGLNLSHNKLGLFPILLCEISTLTELNLSCNGFHDLPSQIGNLLNLQTLCLDGNFLTTLPEELGNLQQLSSLGISFNNFSQIPEVYEKLTMLDRVVMAGNCLEVLNLGVLNRMNHIKHVDLRMNHLKTMVIENLEGNKHITHVDLRDNRLTDLDLSSLCSLEQLHCGRNQLRELTLSGFSLRTLYASSNRLTAVNVYPVPSLLTFLDLSRNLLECVPDWACEAKKIEVLDVSYNLLTEVPVRILSSLSLRKLMLGHNHVQNLPTLVEHIPLEVLDLQHNALTRLPDTLFSKALNLRYLNASANSLESLPSACTGEESLSMLQLLYLTNNLLTDQCIPVLVGHLHLRILHLANNQLQTFPASKLNKLEQLEELNLSGNKLKTIPTTIANCKRLHTLVAHSNNISIFPEILQLPQIQFVDLSCNDLTEILIPEALPATLQDLDLTGNTNLVLEHKTLDIFSHITTLKIDQKPLPTTDSTVTSTFWSHGLAEMAGQRNKLCVSALAMDSFAEGVGAVYGMFDGDRNEELPRLLQCTMADVLLEEVQQSTNDTVFMANTFLVSHRKLGMAGQKLGSSALLCYIRPDTADPASSFSLTVANVGTCQAVLCRGGKPVPLSKVFSLEQDPEEAQRVKDQKAIITEDNKVNGVTCCTRMLGCTYLYPWILPKPHISSTPLTIQDELLILGNKALWEHLSYTEAVNAVRHVQDPLAAAKKLCTLAQSYGCQDNVGAMVVYLNIGEEGCTCEMNGLTLPGPVGFASTTTIKDAPKPATPSSSSGIASEFSSEMSTSEVSSEVGSTASDEHNAGGLDTALLPRPERRCSLHPTPTSGLFQRQPSSATFSSNQSDNGLDSDDDQPVEGVITNGSKVEVEVDIHCCRGRDLENSPPLIESSPTLCSEEHARGSCFGIRRQNSVNSGMLLPMSKDRMELQKSPSTSCLYGKKLSNGSIVPLEDSLNLIEVATEVPKRKTGYFAAPTQMEPEDQFVVPHDLEEEVKEQMKQHQDSRLEPEPHEEDRTEPPEEFDTAL
Regarding B1, the binding result in test [6] is recorded as “binds”.

B2: purified FKBP51 ΔFK1_FLAG (domain or fragment, UniProt Q13451 143-457, looked up)
chain: FEDGGIIRRTKRKGEGYSNPNEGATVEIHLEGRCGGRMFDCRDVAFTVGEGEDHDIPIGIDKALEKMQREEQCILYLGPRYGFGEAGKPKFGIEPNAELIYEVTLKSFEKAKESWEMDTKEKLEQAAIVKEKGTVYFKGGKYMQAVIQYGKIVSWLEMEYGLSEKESKASESFLLAAFLNLAMCYLKLREYTKAVECCDKALGLDSANEKGLYRRGEAQLLMNEFESAKGDFEKVLEVNPQNKAARLQISMCQKKAKEHNERDRRIYANMFKKFAEQDAKEEANKAMGKKTSEGVTNEKGTDSQAMEEEKPEGHV
notes: FKBP51 without the FK1 domain; It was the only construct not checked by active site titration; also called FKBP51 ΔFK1 construct; pProExHta_ΔFK1; source: purified
As for B2, the binding entry in the test with HA_Akt1 (wild type) was “binds”.

B3: FKBP51ΔFK1FK2_FLAG (expressed in cells) (domain or fragment, UniProt Q13451 259-457)
chain: MDTKEKLEQAAIVKEKGTVYFKGGKYMQAVIQYGKIVSWLEMEYGLSEKESKASESFLLAAFLNLAMCYLKLREYTKAVECCDKALGLDSANEKGLYRRGEAQLLMNEFESAKGDFEKVLEVNPQNKAARLQISMCQKKAKEHNERDRRIYANMFKKFAEQDAKEEANKAMGKKTSEGVTNEKGTDSQAMEEEKPEGHV
As for B3, the binding result in the test with HA_Akt1 (wild type) is listed as “binds”.
